Experimental data: PubChem BioAssay AID1259405 (NCATS, 2018)
Screen: 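Silenced genes that increase secreted GFP made by CHO cells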 (primary screen). System: Chinese hamster CHO-K1 ovary cells with stable secreted eGFP expression. Reagent: single siRNA against mouse genes, 0.8 pmol siRNA per well (2 µl of 400 nM stock). Timing: 3 days. Measurement: 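Percent of the per-plate non-targeting control median for intracellular GFP per well by laser scanning cytometry and for cell viability by ATP luminescence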. Scale: GFP, % of control: higher = more GFP per well, higher productivity; viability (ATP), % of control: higher = more viable cells (more ATP). Call rule: 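Called active when intracellular GFP, relative to negative control, is at or above 120%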.
In all, the deposit lists about 50,000 reagents; below is a random part of them. Over the whole deposit, about 4,000 (8%) are marked active. 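Mouse siRNA library applied to hamster cells; one well for each siRNA.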

| gene | PubChem SID | GFP, % of control | viability (ATP), % of control | Outcome |
| --- | --- | --- | --- | --- |
| Ttc6 (GeneID 70846) | SID363542488 | 23.2 | 17.2 | inactive |
| Ttc6 (GeneID 70846) | SID363551979 | 99.3 | 73 | inactive |
| Ttc6 (GeneID 70846) | SID363559584 | 100 | 104 | inactive |
| Chuk (GeneID 12675) | SID363570857 | 55.7 | 52.7 | inactive |
| Mab21l1 (GeneID 17116) | SID363562276 | 47.8 | 81.8 | inactive |
| Mab21l1 (GeneID 17116) | SID363567414 | 96.1 | 74.4 | inactive |
| Mab21l1 (GeneID 17116) | SID363584771 | 61.4 | 66.8 | inactive |
| Yipf2 (GeneID 74766) | SID363540591 | 80.3 | 79.6 | inactive |
| Yipf2 (GeneID 74766) | SID363543042 | 65.1 | 63.7 | inactive |
| Yipf2 (GeneID 74766) | SID363552535 | 92.9 | 54.6 | inactive |
| Ppm1j (GeneID 71887) | SID363575248 | 73.4 | 97.4 | inactive |
| Ppm1j (GeneID 71887) | SID363580880 | 43.4 | 47.4 | inactive |
| Ppm1j (GeneID 71887) | SID363582992 | 66.2 | 92.4 | inactive |
| Vmn1r174 (GeneID 404291) | SID363544737 | 45.3 | 40.7 | inactive |
| Vmn1r174 (GeneID 404291) | SID363551065 | 69.5 | 64.5 | inactive |
| Vmn1r174 (GeneID 404291) | SID363557614 | 121 | 86.2 | active |
| Itpr3 (GeneID 16440) | SID363574398 | 110 | 84.7 | inactive |
| Itpr3 (GeneID 16440) | SID363575454 | 70.2 | 63.2 | inactive |
| Itpr3 (GeneID 16440) | SID363580030 | 20.2 | 18.6 | inactive |
| Bri3bp (GeneID 76809) | SID363547004 | 48.7 | 99.3 | inactive |
| Bri3bp (GeneID 76809) | SID363549816 | 76.9 | 73.4 | inactive |
| Bri3bp (GeneID 76809) | SID363587870 | 132 | 131 | active |
| Slc12a4 (GeneID 20498) | SID363574928 | 90.9 | 95.7 | inactive |
| Slc12a4 (GeneID 20498) | SID363575984 | 163 | 66.5 | active |
| Slc12a4 (GeneID 20498) | SID363580560 | 83.7 | 82.8 | inactive |
| Defb10 (GeneID 246085) | SID363553618 | 106 | 79.5 | inactive |
| Defb10 (GeneID 246085) | SID363561575 | 77.8 | 76.2 | inactive |
| Defb10 (GeneID 246085) | SID363565313 | 154 | 63.7 | active |
| Trmt61a (GeneID 328162) | SID363545258 | 92.8 | 92 | inactive |
| Trmt61a (GeneID 328162) | SID363548771 | 57.8 | 52.8 | inactive |
| Trmt61a (GeneID 328162) | SID363562577 | 108 | 77.4 | inactive |
| Ppp1r3a (GeneID 140491) | SID363575261 | 70.7 | 71 | inactive |
| Ppp1r3a (GeneID 140491) | SID363580893 | 36.6 | 66.8 | inactive |
| Ppp1r3a (GeneID 140491) | SID363583005 | 88.5 | 79.3 | inactive |
| Ldlrap1 (GeneID 100017) | SID363542910 | 101 | 66.1 | inactive |
| Ldlrap1 (GeneID 100017) | SID363546427 | 79.4 | 85.5 | inactive |
| Ldlrap1 (GeneID 100017) | SID363548183 | 95.9 | 82.8 | inactive |
| Zfp322a (GeneID 218100) | SID363573599 | 84.7 | 81.7 | inactive |
| Zfp322a (GeneID 218100) | SID363581343 | 62.6 | 77 | inactive |
| Zfp322a (GeneID 218100) | SID363583807 | 63.2 | 93.2 | inactive |
| Syngr3 (GeneID 20974) | SID363553722 | 80 | 75.3 | inactive |
| Syngr3 (GeneID 20974) | SID363561679 | 80.9 | 78 | inactive |
| Syngr3 (GeneID 20974) | SID363565417 | 89.2 | 57.1 | inactive |
| Bivm (GeneID 246229) | SID363546922 | 49 | 52.2 | inactive |
| Bivm (GeneID 246229) | SID363549734 | 111 | 101 | inactive |
| Bivm (GeneID 246229) | SID363587788 | 102 | 114 | inactive |
| Trim45 (GeneID 229644) | SID363572732 | 96.1 | 87.8 | inactive |
| Trim45 (GeneID 229644) | SID363578012 | 98.1 | 87.6 | inactive |
| Trim45 (GeneID 229644) | SID363582236 | 108 | 137 | inactive |
| Sec22a (GeneID 317717) | SID363555109 | 110 | 76.7 | inactive |
| Sec22a (GeneID 317717) | SID363568556 | 82.7 | 63.7 | inactive |
| Sec22a (GeneID 317717) | SID363586615 | 72.8 | 87.8 | inactive |
| Ky (GeneID 16716) | SID363540406 | 70.4 | 74.1 | inactive |
| Ky (GeneID 16716) | SID363542158 | 60 | 52.8 | inactive |
| Ky (GeneID 16716) | SID363567074 | 65.6 | 91 | inactive |
| Gm5124 (GeneID 331392) | SID363540289 | 100 | 73 | inactive |
| Gm5124 (GeneID 331392) | SID363542041 | 119 | 92.9 | inactive |
| Gm5124 (GeneID 331392) | SID363566957 | 77.9 | 123 | inactive |
| Col6a1 (GeneID 12833) | SID363582509 | 88.4 | 109 | inactive |
| Col6a1 (GeneID 12833) | SID363584269 | 71.2 | 82.3 | inactive |
| Cds1 (GeneID 74596) | SID363570421 | 139 | 89.5 | active |
| Cds1 (GeneID 74596) | SID363579221 | 94.4 | 111 | inactive |
| Cds1 (GeneID 74596) | SID363583093 | 106 | 95.1 | inactive |
| Il4ra (GeneID 16190) | SID363568688 | 99.3 | 88 | inactive |
| Il4ra (GeneID 16190) | SID363576080 | 35.1 | 21.1 | inactive |
| Il4ra (GeneID 16190) | SID363578896 | 113 | 75.1 | inactive |
| Spmap2l (GeneID 71868) | SID363543509 | 88.1 | 66.3 | inactive |
| Spmap2l (GeneID 71868) | SID363553002 | 129 | 62.8 | active |
| Spmap2l (GeneID 71868) | SID363558850 | 74.1 | 97.7 | inactive |
| Slc12a5 (GeneID 57138) | SID363574930 | 88.7 | 62.4 | inactive |
| Slc12a5 (GeneID 57138) | SID363575986 | 115 | 84.1 | inactive |
| Slc12a5 (GeneID 57138) | SID363580562 | 129 | 111 | active |
| Or8h7 (GeneID 258840) | SID363544468 | 83.5 | 50.8 | inactive |
| Or8h7 (GeneID 258840) | SID363550796 | 123 | 96.5 | active |
| Or8h7 (GeneID 258840) | SID363557345 | 71.3 | 79.6 | inactive |
| Sema7a (GeneID 20361) | SID363572524 | 94.1 | 89.8 | inactive |
| Sema7a (GeneID 20361) | SID363577804 | 83.1 | 87.3 | inactive |
| Sema7a (GeneID 20361) | SID363582028 | 88.6 | 108 | inactive |
| Or10ag2 (GeneID 258347) | SID363544558 | 13.6 | 15.4 | inactive |
| Or10ag2 (GeneID 258347) | SID363550886 | 66.4 | 61 | inactive |
| Or10ag2 (GeneID 258347) | SID363557435 | 113 | 65.1 | inactive |
| Perm1 (GeneID 74183) | SID363543674 | 62 | 78.8 | inactive |
| Perm1 (GeneID 74183) | SID363553167 | 61.8 | 108 | inactive |
| Perm1 (GeneID 74183) | SID363559015 | 64.4 | 82.5 | inactive |

Reformatted: results already given
gene	PubChem SID	GFP, % of control	viability (ATP), % of control	Outcome
Slc12a4 (GeneID 20498)	SID363575984	163	66.5	active
Slc12a4 (GeneID 20498)	SID363580560	83.7	82.8	inactive
Defb10 (GeneID 246085)	SID363553618	106	79.5	inactive
Defb10 (GeneID 246085)	SID363561575	77.8	76.2	inactive
Defb10 (GeneID 246085)	SID363565313	154	63.7	active
Trmt61a (GeneID 328162)	SID363545258	92.8	92	inactive
Trmt61a (GeneID 328162)	SID363548771	57.8	52.8	inactive
Trmt61a (GeneID 328162)	SID363562577	108	77.4	inactive
Ppp1r3a (GeneID 140491)	SID363575261	70.7	71	inactive
Ppp1r3a (GeneID 140491)	SID363580893	36.6	66.8	inactive
Ppp1r3a (GeneID 140491)	SID363583005	88.5	79.3	inactive
Ldlrap1 (GeneID 100017)	SID363542910	101	66.1	inactive
Ldlrap1 (GeneID 100017)	SID363546427	79.4	85.5	inactive
Ldlrap1 (GeneID 100017)	SID363548183	95.9	82.8	inactive
